The source of these data is PubChem BioAssay AID1347423 (Functional Genomics Laboratory (NCATS/FGL), 2020).

About 210 (0.4%) of roughly 52,000 sequences were called active.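 How the source made its calls: active means gene whose silencing raises cell survival under the drug, median off-target-corrected z-score across its silencing RNAs 2 or more; inactive means the rest.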 The list shows a part of the results.

The experiment is described as follows: Resistance to Poly (ADP-Ribose) Polymerase inhibitor: Gene Identification via Genome-wide siRNA Screen. The conditions noted are these: mouse BRCA2 R2336H ES cells, olaparib, CellTiter-Glo viability; hits give high values. Put shortly:
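Mouse BRCA2 R2336H ES cells were reverse-transfected with siRNA (20 nM final), treated at 48 h with 500 nM olaparib, and read by CellTiter-Glo after 72 h. Scores: MAD-based z per siRNA, median per gene, seed off-target correction.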
For orientation: In ATP-based viability assays light output follows the ATP content of the culture.
In the case of GCGGUAGAGACUACAGCCUTT against BC028528, the z-score was inactive: 0.291.
The same measure for GGCUUUGAUUGAACAUGAGTT against Lypla2: inactive: 0.783; for GGGCUUCAACACUGAGAAGTT against Arf4l: inactive: -1.54.
The same measure for GGGAUCCUUGUAUUUCUUUTT against Ctns: inactive: -0.123; for GGAUGUGGAAGAGUUAAUUTT against Palm2: inactive: 0.0302.
As for GGCUCUUAGAAAAAUGUUATT against Olfr1156, the z-score was inactive: 0.386.
As for GGUCUUUUCUAUUAUGGGATT against Strc, the figure is inactive: 0.95; as for GGACAAGAAGAAAAAGAAGTT against Tmie, inactive: -0.587; as for GGUUCUCAUCAACCUUCUCTT against Olfr109, inactive: 2.16.
As for GGGCUUUCUUUGUGAUAUUTT against BC055367, the figure is inactive: -0.666; as for GCUUUUACCGUUACGUCUUTT against Ugcgl1, inactive: -0.188.
Consider GGAGCUUGAAGGAUGAGGATT against Plaur, for which the z-score was inactive: 1.31.
With GCCACGAUAAUUCAGGAGUTT against Aurkc, the z-score was inactive: 1.25.
On to GCACAGUUAGCAUUGCUCCTT against Hoxc10, for which the z-score was inactive: 0.577.
As for GGUGAUGGAAGUUAGUGUGTT against Bet1, the figure is inactive: -0.804.
As for GGAGAAAAUGAGGUUAAUGTT against Tm4sf9, the z-score was inactive: -0.0318.
As for GGUAUUUGAUGGUCACAAATT against Rtn3, the figure is inactive: -0.386.
As for GGUUUUGCCAAGGACGCAGTT against Ngfb, the figure is inactive: 0.256; as for GGAAGCUCAGCUCCUAUCUTT against Nek4, inactive: -1.49; as for CGGCACCAGUUACAAAGUGTT against MGC107514, inactive: -2.72.
The same measure for CCAUAGAGUGGAUAGUCAUTT against Rsl1: inactive: 1.22.
On to CGCGAGCUCAGAAUACAUGTT against Btn1a1, for which the z-score was inactive: -0.329.
GGAAGUGUCCUUCUACCAGTT against Hoxd13: the z-score was inactive: 0.247.
GGUCCUGACACAUUCUUACTT against Olfr571: the z-score was inactive: -0.707.
The same measure for GCCCAGAGUUACGAGUAUGTT against Aacs: inactive: 1.6.
As for GGUCCUCAGAAUGUAACAGTT against Jam4, the figure is inactive: -0.665.
With “GGAAAGCAUGAGUUAAUAATT against 5033405K12Rik”, the z-score was inactive: -2.02.
Consider GGCAUUUUGAAAACAAGGUTT against Cox7a2, for which the z-score was inactive: 1.31.
GGAGAAAGUGUCCUCUGUGTT against Olfr924: the z-score is inactive: -1.88.
On to GGAAAGGAACUAGCAACGATT against Art3, for which the z-score was inactive: 1.23.
Turning to GGAAAGGUAUGAGUGAAGATT against Ifi205, the z-score was inactive: 0.199.
Take CCGCAUGAACUUCCUACAGTT against Ugt1a1: the z-score is inactive: 0.243.
As for “GGCAUCUGUAAGCCAGAUCTT against 2410021P16Rik”, the figure is inactive: 0.61.
“GGACUUUCAGUUAUAUAGGTT against 1110031I02Rik”: the z-score was inactive: 1.15.
As to GGAGAUGGCCAAAAAAGAGTT against Pop1, the z-score is inactive: -0.929.
As for “GAAACCAGUAGACAAAUACTT against 1110067L22Rik”, the figure is inactive: -0.563.
As for GCUUAUGAACCUCAGAGGGTT against Tex19, the z-score was inactive: 0.0582.
As for “GCACACACUGCUACGAUGGTT against 1190003K14Rik”, the figure is inactive: 0.414; as for GGCAUGAGUCACUUGAUGATT against Hebp1, inactive: 0.719; as for AAGGAAGACAGUCAUAGCUTT against V1rd9, inactive: 0.72.
GCCUUUACCGAGUGCACAUTT against Ttyh3: the z-score is inactive: 0.416.
For the sequence GCACUGGGAAGAAAAUUCUTT against Olfr130, the z-score was inactive: -0.313.
The same measure for GCGGCUAAUUCGUUCUUUCTT against Atp8a1: inactive: 2.34; for GCGAGAUGCCAACAAACUGTT against Pacs1: inactive: 0.346; for GCAAACUGAAAAAACCCGCTT against Stk22c: inactive: -0.126.
As for GGGAUGUGAUAGUUCAUAATT against Sil, the figure is inactive: -1.64; as for “GCUGAUGACCACUGAGUUUTT against 2310007F12Rik”, inactive: 1.45.
The same measure for GGAUGCUAUAAAAUCACCATT against Rps27: inactive: -0.268; for GGGCUUCAUUCUCGUCUACTT against Rap2b: inactive: -0.831; for GGCCCAACAAUACCUGCUGTT against Rgs17: inactive: 0.132.
On to GGAUACACAGACAUUAAUCTT against Cd164, for which the z-score was inactive: -0.688.
As to GGUUUCGUAGCUUAACCACTT against Rab27a, the z-score was inactive: -1.31.
As for GCUGAAUGGAAGGAAGUUGTT against BC056474, the figure is inactive: -2.14; as for GGUACUUGAAGCUCCUUGGTT against Faim3, inactive: -3.06; as for GGACUACGGAUACAGGAUATT against Sfrp5, inactive: 0.855.
Turning to GGAGAAUACAGUGGAAUUGTT against Idh3a, the z-score was inactive: -0.598.
The same measure for GGAUGAAGGGACGAAUUCATT against Pcdha6: inactive: 0.447.
As for GCCACGUCUAAGUAUCAUUTT against Col6a1, the figure is inactive: -0.765; as for GGAAGCUUCACAUCAGCCATT against Hoxb5, inactive: -0.111; as for “GGGAAAUGGAGGAUAAUUATT against B930008K04Rik”, inactive: -1.72.
As for GGUGGUUAAAUGGUUUUAATT against Prkg2, the figure is inactive: 0.362; as for CCCUCUUAGGAGCUAGUGATT against Atp2b4, inactive: -1.83; as for “GGAAAAGGUGGAGUUCUUATT against 9830160G03Rik”, inactive: -0.547.
As to “CCUGACAUUCUUUAAUCCATT against D930020E02Rik”, the z-score is inactive: 0.125.
GGAUGUCGUGUGUUACUUGTT against Dgkg: the z-score was inactive: 0.834.
As for “CCAUGGGCCUACCAAACAGTT against B230218O03”, the z-score was inactive: 1.02.
The same measure for GGGCCACAAGAAAUGAUAUTT against Nqo2: inactive: -1.09; for GGAAUAAAGAUCUUUGGUUTT against Vip: inactive: 0.51.
As for GGUGACAACUGACUUCGAATT against C87499, the figure is inactive: 0.27; as for GGACCAAAUUACAUAGCAATT against Itgb3bp, inactive: 1.32.
In the case of CCCUAAAGUCCAGAAAAUATT against Olfr1211, the z-score is inactive: -1.1.
On to “CGUCACUGAGAGAUUCAAATT against 4831417L10”, for which the z-score was inactive: 3.13.
As for GGACCUAAAGUUUCUCUCATT against Ccnc, the z-score was inactive: 0.608.
As for GCAGAGACGUGAUUGAUCGTT against Hist2h2bb, the z-score was inactive: -1.49.
The same measure for “GGCUGGAUUUUAUUUUGUUTT against D830039M14Rik”: inactive: 0.139; for “GGAGUAUCUUGAAAUGCAUTT against A530088I07Rik”: inactive: 0.83.
Turning to GGACUACGAUGAAGAGUUGTT against Rnf134, the z-score was inactive: 0.1.
As for “GGAUGCAGAGAAGAAUCUGTT against 2400006A19Rik”, the figure is inactive: -2.42; as for GGAGAAGGCAAAGACUCUGTT against Serpina3n, inactive: -1.39.
The same measure for GGUAUGAUGGACUCUCUGUTT against Olfr186: inactive: -2.58; for CCACCCUGUGAAAAAGUCATT against Ccr3: inactive: 1.15.
As for “CCGAGUACCAAGAUUCUGATT against 1600015I10Rik”, the figure is inactive: 1.18; as for CCAACCGAGUCAUUUAAGGTT against Runx2, inactive: 1.29.
For the sequence “GGUGUUGAGAUCCACAAGGTT against 2210012G02Rik”, the z-score is inactive: 1.88.
As to GGGAUCAAUGCUUAAUACATT against Zfp2, the z-score was inactive: 0.556.
For GGUAAAUAGUCACCUACGGTT against Dia1, the z-score is inactive: 0.858.
As for GGAAGAACUCAAGAGGGAATT against Ppap2c, the figure is inactive: 0.415; as for GCCAUUGCCUCAUAAUUUATT against Magmas, inactive: -2.29; as for “GCUUUUGUGACUCUGCUGATT against 1300006N24Rik”, inactive: -0.846.
The same measure for “AAUUCAUCCUCAGCGUACATT against D830030K20Rik”: inactive: 0.478.
Regarding “CGAUAUCACUCAGGAGUGUTT against 0710007A14Rik”, the z-score is inactive: 0.132.
As for GGGCUUCAAGCAUAGCUUCTT against Fiz1, the figure is inactive: -0.24.
On to GAUUCAGCAUUAUUUCUGUTT against Olfr980, for which the z-score was inactive: 0.218.
In the case of AGUGAACAUCGAUCGCAUGTT against Gng8, the z-score was inactive: 0.283.
As for GGAGUUGGUCAAGGUGCUUTT against Parvb, the figure is inactive: 2.21; as for CGUAUAUCGAUGAAGAUGATT against BC016579, inactive: -0.542.
On to “GGAGCAUCUCCUCAUGGAUTT against 4921517D21Rik”, for which the z-score is inactive: 0.514.
As for “CGGUAUGUUAUUUUGGUUGTT against 1500011H22Rik”, the figure is inactive: 0.654.
On to “GGGUUAAGGUAGUUUCUAATT against 4930579C12Rik”, for which the z-score is inactive: 1.09.
As for GGCCCGAAUAGCUAUGACUTT against Cldn7, the figure is inactive: -0.0361.
Consider GCUUCUACGUAUGUGCCCATT against Tpx2, for which the z-score is inactive: -1.26.
As for GGAUUCAAGGCUGUGGGAATT against Timp1, the figure is inactive: -1.08; as for GGAGAUUGCCAUAGCUGCUTT against Mybl2, inactive: -0.0756.
As for “GGACACCACCAAUCUUGACTT against 6330406P08Rik”, the figure is inactive: 1.1.
